Like-named read-outs stand apart in the source and are kept apart here. No constants are given. Whether binding was seen depends on the method and setting. In cells and extracts the contact can be indirect. Some binding calls cover weakened binding; strength is not graded here. Blank lines part the entries; values can stand above or below the substance they belong to.
How the values were obtained:
Experiment in all cases: co-IP
[1] = target: SMCHD1 (endogenous, myocytes) (human (endogenous in immortalized myocytes)) (UniProt A6NHR9)
GFP-TRIM28 = GFP-TRIM28 (UniProt Q13263)
[2] = target: GFP-SMCHD1-K1374R (human) (UniProt A6NHR9)
[3] = target: GFP-SMCHD1 (wild type) (human) (UniProt A6NHR9)
[4] = target: 3xHA-tagged SMCHD1-6xK>R variant (human) (UniProt A6NHR9)
[5] = target: 3xHA-SMCHD1 (wild type) (human) (UniProt A6NHR9)
[6] = target: 3xHA-SMCHD1 K1374R (human) (UniProt A6NHR9)
[7] = target: GFP-SMCHD1 (wild type) (human) (UniProt A6NHR9); remark: listed apart in the source
[8] = target: 3xHA-SMCHD1 K1374-2002R (human) (UniProt A6NHR9)
[9] = target: 3xHA-SMCHD1 (wild type) (human) (UniProt A6NHR9); remark: listed apart in the source

Protein sequences, listed by entry. Tags and fused reporters are not part of them. Lines headed by an entry give the natural chain unless they say otherwise; changes in a name come on top.
UniProt A6NHR9, whole entry: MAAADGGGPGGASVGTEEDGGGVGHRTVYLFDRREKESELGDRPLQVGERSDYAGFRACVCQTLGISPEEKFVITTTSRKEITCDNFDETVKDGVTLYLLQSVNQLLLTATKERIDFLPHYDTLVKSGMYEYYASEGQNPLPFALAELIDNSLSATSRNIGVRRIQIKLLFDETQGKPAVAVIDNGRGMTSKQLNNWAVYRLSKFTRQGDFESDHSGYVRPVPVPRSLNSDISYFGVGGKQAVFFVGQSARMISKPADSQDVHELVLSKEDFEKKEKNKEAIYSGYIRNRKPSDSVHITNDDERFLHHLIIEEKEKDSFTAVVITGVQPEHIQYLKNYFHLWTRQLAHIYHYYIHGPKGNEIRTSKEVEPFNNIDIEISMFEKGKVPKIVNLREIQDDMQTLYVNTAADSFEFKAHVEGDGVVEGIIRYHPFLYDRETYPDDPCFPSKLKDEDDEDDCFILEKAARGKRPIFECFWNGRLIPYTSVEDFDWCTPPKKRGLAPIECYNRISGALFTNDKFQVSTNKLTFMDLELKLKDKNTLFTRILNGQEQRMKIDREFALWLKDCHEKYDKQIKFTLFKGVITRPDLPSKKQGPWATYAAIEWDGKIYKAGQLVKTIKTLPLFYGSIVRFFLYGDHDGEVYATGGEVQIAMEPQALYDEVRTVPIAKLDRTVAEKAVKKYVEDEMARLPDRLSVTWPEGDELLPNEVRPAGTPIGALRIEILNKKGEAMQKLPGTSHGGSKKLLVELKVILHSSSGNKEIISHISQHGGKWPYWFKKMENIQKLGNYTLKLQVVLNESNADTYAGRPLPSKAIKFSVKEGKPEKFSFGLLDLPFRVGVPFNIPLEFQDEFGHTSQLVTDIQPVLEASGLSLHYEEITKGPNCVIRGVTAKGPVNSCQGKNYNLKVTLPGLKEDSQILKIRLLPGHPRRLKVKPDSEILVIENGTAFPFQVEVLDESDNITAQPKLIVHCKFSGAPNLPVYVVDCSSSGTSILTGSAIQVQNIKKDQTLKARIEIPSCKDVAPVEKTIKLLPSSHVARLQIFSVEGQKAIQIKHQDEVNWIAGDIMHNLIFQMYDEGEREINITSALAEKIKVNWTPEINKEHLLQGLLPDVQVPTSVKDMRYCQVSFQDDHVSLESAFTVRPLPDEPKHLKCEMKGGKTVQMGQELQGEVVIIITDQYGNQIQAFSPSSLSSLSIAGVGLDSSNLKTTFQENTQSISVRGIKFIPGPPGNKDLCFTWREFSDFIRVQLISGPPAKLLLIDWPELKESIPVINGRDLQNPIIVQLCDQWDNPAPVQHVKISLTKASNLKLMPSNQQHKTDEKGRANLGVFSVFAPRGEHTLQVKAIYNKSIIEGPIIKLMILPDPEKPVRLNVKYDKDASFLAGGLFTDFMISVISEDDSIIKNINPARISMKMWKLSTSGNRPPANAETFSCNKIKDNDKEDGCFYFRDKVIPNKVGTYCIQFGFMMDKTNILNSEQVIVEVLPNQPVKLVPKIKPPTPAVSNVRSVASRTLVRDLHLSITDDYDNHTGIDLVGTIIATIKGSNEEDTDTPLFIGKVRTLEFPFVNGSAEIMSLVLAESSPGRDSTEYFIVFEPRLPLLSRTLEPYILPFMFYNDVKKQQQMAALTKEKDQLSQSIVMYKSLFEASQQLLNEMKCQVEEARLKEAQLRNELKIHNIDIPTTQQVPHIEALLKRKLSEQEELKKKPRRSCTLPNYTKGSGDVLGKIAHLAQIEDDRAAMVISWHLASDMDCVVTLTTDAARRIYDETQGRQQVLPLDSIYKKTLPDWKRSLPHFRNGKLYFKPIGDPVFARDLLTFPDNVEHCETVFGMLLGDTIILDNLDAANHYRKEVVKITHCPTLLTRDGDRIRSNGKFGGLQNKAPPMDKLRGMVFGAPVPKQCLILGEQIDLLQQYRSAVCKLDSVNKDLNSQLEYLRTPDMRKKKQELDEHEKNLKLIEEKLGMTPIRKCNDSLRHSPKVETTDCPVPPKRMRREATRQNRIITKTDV
UniProt Q13263, whole entry: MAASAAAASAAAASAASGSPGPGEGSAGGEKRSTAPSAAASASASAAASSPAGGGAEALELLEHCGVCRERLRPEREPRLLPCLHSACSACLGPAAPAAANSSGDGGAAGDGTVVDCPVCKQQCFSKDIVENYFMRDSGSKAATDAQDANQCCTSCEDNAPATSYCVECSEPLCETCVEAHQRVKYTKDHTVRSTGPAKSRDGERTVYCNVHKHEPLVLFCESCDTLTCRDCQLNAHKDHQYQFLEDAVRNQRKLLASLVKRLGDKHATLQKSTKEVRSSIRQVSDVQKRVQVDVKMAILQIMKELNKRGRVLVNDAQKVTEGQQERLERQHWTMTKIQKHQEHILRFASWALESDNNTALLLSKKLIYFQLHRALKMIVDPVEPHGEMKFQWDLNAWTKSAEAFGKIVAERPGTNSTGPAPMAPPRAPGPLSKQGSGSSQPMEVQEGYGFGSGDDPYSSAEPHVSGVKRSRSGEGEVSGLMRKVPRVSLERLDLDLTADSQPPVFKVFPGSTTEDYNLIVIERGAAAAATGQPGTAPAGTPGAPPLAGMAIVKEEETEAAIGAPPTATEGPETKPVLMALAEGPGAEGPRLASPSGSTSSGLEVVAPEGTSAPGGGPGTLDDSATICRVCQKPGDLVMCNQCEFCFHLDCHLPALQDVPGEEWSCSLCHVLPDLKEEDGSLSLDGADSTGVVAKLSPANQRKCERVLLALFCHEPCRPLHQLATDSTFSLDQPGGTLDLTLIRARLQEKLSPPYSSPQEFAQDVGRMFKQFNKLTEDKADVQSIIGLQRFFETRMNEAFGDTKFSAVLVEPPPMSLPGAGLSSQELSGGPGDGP

Substance: TRIM28 (endogenous, myocytes) (from UniProt Q13263 1-835)
- binding [1]: binds

- binding (GFP-TRIM28): binds
Substance: SMCHD1 (endogenous, HEK293T cells) (from UniProt A6NHR9 1-2005)

- binding [2]: binds
- binding [3]: binds
- binding [4]: binds
- binding [5]: binds
- binding [6]: binds
- binding (GFP-TRIM28): binds
- binding [7]: binds
Substance: HNRNPK (endogenous, HEK293T, HeLa and U2OS cells) (from UniProt P61978 1-463)

- binding [2]: binds
- binding [3]: binds
- binding [4]: binds
- binding [5]: binds
- binding [6]: binds
- binding [7]: binds
Substance: TRIM28 (endogenous, HEK293T, HeLa and U2OS cells) (from UniProt Q13263 1-835)

- binding [8]: binds
- binding [9]: binds
Substance: GFP-SMCHD1 (wild type) (from UniProt A6NHR9 1-2005)

- binding [8]: binds
- binding [9]: binds
Substance: GFP-SMCHD1 K1374-2002R (from UniProt A6NHR9 1-2005)

Substance: HNRNPK (endogenous, myocytes) (from UniProt P61978 1-463)
- binding [1]: binds

— doi:10.1101/2024.10.13.618066
